Reference: PubChem BioAssay AID1347075 (National Center for Advancing Translational Sciences (NCATS), 2019)
In all, about 400,000 compounds went through this assay and about 5,500 (1.4%) were called active. This list was built around the results that the source calls inconclusive (neither active nor inactive); the mix of calls is not that of the screen. Calls come from the whole dose curve; as a rule, active = well fitted cell-killing curve with a large enough effect; inconclusive = small, poorly fitted or top-dose-only effect, or effect the other way; inactive = flat fitted curve, though single readings scatter. Potencies beside an inconclusive call are fits to weak or partial responses and may not hold up.

assay: qHTS assay for MDR1-selective chemotherapeutics: Primary screen using the parental adenocarcinoma cell KB-3-1; details: KB-3-1 viability, CellTiter-Glo ATP luminescence, 72 h; activity change, negative = cytotoxic: at 46.1 µM (top of the series); note: nearly all actives have a fitted effect of over 60% in size
In short: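 72 h, 37 °C compound treatment of KB-3-1 parental cells; CellTiter-Glo added, 10 min, luminescence read. Data corrected against DMSO-only plates and normalized before curve fitting.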
% is set by controls: 0 for no effect and ±100 for the full control effect; potency is the fitted concentration of half-maximal effect.

Which activity change, negative = cytotoxic does the source give for `COc1ccc(-n2c(SCC#N)nc3c(sc(=S)n3-c3ccccc3)c2=O)c(OC)c1` here?
The activity change, negative = cytotoxic was inconclusive: -5.3%.

With `N/C(Cc1ccc(Cl)cc1Cl)=N\OC(=O)c1cccs1` as the compound, how does the Potency read?
The Potency was inconclusive: 18.4 µM [cytotoxic, partial curve].

Which Potency does the source give for `COc1ccc(CNC(=O)C(C)n2ccc3cc(S(=O)(=O)N4CCCCCC4)ccc32)cc1` (stereo not drawn) here?
The Potency was inconclusive: 5.17 µM [cytotoxic, partial curve, poor fit].

With `COC(=O)c1ccc(Oc2cc(C)nc(-n3nc(C)cc3C)n2)cc1` as the compound, how does the Potency read?
Its Potency is active: 1.3 µM.

Which Potency does the source give for `CCc1cccc2c1NC(=O)C21N2CCCC2C(C(=O)c2ccc3ccccc3c2)C12C(=O)Nc1ccccc12` (stereo not drawn) here?
Its Potency is active: 16.4 µM.

Which Potency does the source give for `CCCc1[nH]nc2c1C(C1CCCCC1)C(C#N)=C(N)O2` (stereo not drawn) here?
The Potency was inconclusive: 29.1 µM [cytotoxic, single point].

With `O=C(CCS(=O)(=O)c1ccc2c(c1)NC(=O)CO2)Nc1cccc(C(F)(F)F)c1` as the compound, how does the Potency read?
Its Potency is inconclusive: 4.61 µM [rising, partial curve, poor fit].

For `COC(=O)C1C2CC(C(Br)C2Br)C1C(=O)O` (stereo not drawn), which Potency is on record?
Its Potency is inconclusive: 0.58 µM [rising, full curve, poor fit].

For `O=C(C[n+]1cccc2ccccc21)c1ccc([N+](=O)[O-])cc1`, which Potency is on record?
The Potency was inconclusive: 29.1 µM [cytotoxic, single point].

With `O=C(CSc1nnnn1C1CCCC1)Nc1cccc(NC(=O)c2ccco2)c1` as the compound, how does the “activity change, negative = cytotoxic” value read?
The value was inactive: -7.07%.

Which Potency does the source give for `CCCCCCCCCC(=O)N1CCN(c2cc3c(cc2F)c(=O)c(C(=O)O)cn3CC)CC1` here?
Its Potency is inconclusive: 20.6 µM [cytotoxic, single point].

Which “activity change, negative = cytotoxic” value does the source give for `Cc1ccc(-c2c(C#N)c(N)n(-c3ccccc3)c(=O)c2C#N)cc1` here?
The value was inactive: -0.991%.

Which Potency does the source give for `Nc1ccccc1-c1ccc([N+](=O)[O-])cc1` here?
The Potency was inconclusive: 16.4 µM [cytotoxic, single point].

With `CC(=O)c1cccc(CN2CCN(Cc3ccccc3)C(CCO)C2)c1` (stereo not drawn) as the compound, how does the “activity change, negative = cytotoxic” value read?
Its value is inactive: -5.51%.

Which “activity change, negative = cytotoxic” value does the source give for `Cc1ccc(N(C(=O)c2ccco2)C(C(=O)NC2CCCC2)c2cccnc2)cc1` (stereo not drawn) here?
The value was inactive: 13.6%.

With `O=C(/C=C/c1ccc(OCc2ccccc2)c(OCc2ccccc2)c1)c1cccnc1` as the compound, how does the Potency read?
Its Potency is inconclusive: 11.6 µM [cytotoxic, partial curve, poor fit].

Which Potency does the source give for `Cc1ccc(Cl)cc1N1CCN(C(=O)Cn2cnc3nc4c(cc3c2=O)CCCC4)CC1` here?
Its Potency is inconclusive: 3.26 µM [cytotoxic, partial curve, poor fit].

For `CCOC(=O)c1c(C)[nH]c(C(=O)CSc2nnnn2-c2ccccc2)c1C`, which “activity change, negative = cytotoxic” value is on record?
Its value is inactive: 4.16%.

With `COc1ccc(-c2csc(NC(=S)NC(=O)c3cccs3)n2)cc1Br` as the compound, how does the Potency read?
Its Potency is inconclusive: 29.1 µM [cytotoxic, single point].

With `Cc1ccc2cccc(NC(=O)c3ccc(-c4cc(Cl)ccc4Cl)o3)c2n1` as the compound, how does the “activity change, negative = cytotoxic” value read?
The value was inactive: 12.4%.

For `CC(C)(C)C(=O)N1CCN(c2ccc(NC(=O)c3ccc([N+](=O)[O-])o3)cc2)CC1`, which Potency is on record?
The Potency was inconclusive: 8.2 µM [cytotoxic, partial curve, poor fit].

With `COc1ccc(CC2(CO)CCN(Cc3cccc4nccnc34)CC2)cc1` as the compound, how does the “activity change, negative = cytotoxic” value read?
Its value is inactive: 0.972%.

With `CCCNC(=O)Cc1c(OC)ccc2cc(Br)ccc12` as the compound, how does the activity change, negative = cytotoxic read?
Its activity change, negative = cytotoxic is inconclusive: -38.3% [cytotoxic].

With `Cn1c(=O)c2c(ncn2Cc2cccc(Cl)c2)n(C)c1=O` as the compound, how does the Potency read?
The Potency was inconclusive: 29.1 µM [cytotoxic, single point].

For `Cc1ccc(CCNc2nc3c(S(=O)(=O)c4ccc(C)cc4)nnn3c3ccsc23)cc1`, which “activity change, negative = cytotoxic” value is on record?
The value was inactive: -4.35%.

Which Potency does the source give for `Cc1ccc(NC(=O)c2ccc([N+](=O)[O-])s2)cc1S(=O)(=O)N1CCOCC1` here?
The Potency was active: 18.4 µM.

For `CC(=O)Oc1c(Br)cc(N(C(C)=O)S(=O)(=O)c2ccccc2)c2ccccc12`, which Potency is on record?
Its Potency is inconclusive: 23.1 µM [cytotoxic, single point].

With `CC(C)c1ccc(NC(=O)c2ccc(NC(=O)CCS(=O)(=O)c3cccs3)cc2)cc1` as the compound, how does the Potency read?
The Potency was inconclusive: 29.1 µM [cytotoxic, single point].

With `CC(C)N(Cc1cc2ccccc2[nH]c1=O)C(=O)c1ccco1` as the compound, how does the “activity change, negative = cytotoxic” value read?
Its value is inactive: -7.88%.

For `O=C(CC1C[C@H](C(=O)N2CCCCC2)[C@@]2(CCc3ccccc3)c3[nH]c4ccccc4c3CCN2C1=O)NCCc1ccccn1` (stereo partly drawn), which Potency is on record?
The Potency was inconclusive: 29.1 µM [cytotoxic, single point].

Which “activity change, negative = cytotoxic” value does the source give for `CCc1sc(C(=O)Nc2ccc3c(c2)OCO3)cc1C` here?
The value was inactive: -13.7%.

Which “activity change, negative = cytotoxic” value does the source give for `COc1ccc(C(=O)N/N=C(\c2ccccc2)c2ccccn2)cc1` here?
The value was inactive: -34.1%.

For `CCN1CCN(c2nc3c(C)cccn3c(=O)c2/C=C(\C#N)S(=O)(=O)c2ccc(Cl)cc2)CC1`, which Potency is on record?
Its Potency is inconclusive: 29.1 µM [cytotoxic, single point].

With `CC(C)(C)Nc1nc(SCC(=O)Nc2ccccc2)nc(N2CCOCC2)n1` as the compound, how does the “activity change, negative = cytotoxic” value read?
Its value is inactive: 0.257%.

Which Potency does the source give for `O=C(NCC1(c2ccccc2)CCCC1)c1ccccc1Br` here?
The Potency was inconclusive: 9.2 µM [cytotoxic, single point].

Which Potency does the source give for `Cc1csc(NC(=O)Cc2coc3cc(C)c(C(C)C)cc23)n1` here?
The Potency was inconclusive: 29.1 µM [cytotoxic, single point].

Which Potency does the source give for `O=c1c2ccccc2nc2sc(Nc3cccc(N4CCNCC4)c3)nn12` here?
The Potency was inconclusive: 3.26 µM [cytotoxic, partial curve, poor fit].

Which Potency does the source give for `COc1ccccc1N1CCN(C(=O)c2oc3ccc(Br)cc3c2C)CC1` here?
Its Potency is active: 10.3 µM.

For `COc1ccccc1N1CCN(C(=O)c2oc3ccc(F)cc3c2C)CC1`, which Potency is on record?
The Potency was inconclusive: 29.1 µM [cytotoxic, single point].

With `N#Cc1nc(COc2ccc(Br)cc2)oc1NCCN1CCOCC1` as the compound, how does the Potency read?
The Potency was inconclusive: 29.1 µM [cytotoxic, single point].

Which Potency does the source give for `COCc1cc(C)nc2sc(C(=O)Nc3ccccc3F)c(N)c12` here?
Its Potency is inconclusive: 29.1 µM [rising, single point].

With `Cc1ccc(-c2c3c(=O)n(C)c(=O)n(C)c3c3c(C(F)(F)F)nc4ccccc4n23)cc1` as the compound, how does the “activity change, negative = cytotoxic” value read?
Its value is inactive: -7.16%.

Which “activity change, negative = cytotoxic” value does the source give for `O=[N+]([O-])c1ccc2ncnc(N3CCN(Cc4ccc5c(c4)OCO5)CC3)c2c1` here?
The value was inactive: -17%.

Which Potency does the source give for `CCCN(Cc1nnc(-c2ccccc2Cl)o1)C(=O)c1oc2ccccc2c1C` here?
Its Potency is inconclusive: 18.4 µM [cytotoxic, single point].

For `CCOc1ccc(CCNc2nc3c(c(=O)n(C)c(=O)n3C)n2CC)cc1OCC`, which Potency is on record?
Its Potency is active: 14.6 µM.

With `CCOC(=O)C1=C(C)Nc2ncnn2C1/C=C/c1ccccc1` (stereo not drawn) as the compound, how does the Potency read?
Its Potency is inconclusive: 18.4 µM [cytotoxic, single point].

For `CCCCn1c2c(c(=N)c3ccccc31)CCC2`, which Potency is on record?
Its Potency is inconclusive: 23.1 µM [cytotoxic, partial curve, poor fit].

With `O=C(c1ccccc1)N(Cc1cccnc1)C1(C(=O)Nc2ccccc2)CCCCC1` as the compound, how does the Potency read?
The Potency was inconclusive: 29.1 µM [cytotoxic, single point].

For `COC(=O)c1ccccc1NC(=O)N1c2ccccc2Sc2ccccc21`, which Potency is on record?
Its Potency is inconclusive: 16.4 µM [cytotoxic, partial curve].

Which “activity change, negative = cytotoxic” value does the source give for `O=C(NCc1ccco1)c1cc(-c2ccccc2)nn1CC1CC(c2cccc([N+](=O)[O-])c2)=NO1` (stereo not drawn) here?
Its value is inactive: 0%.

Which Potency does the source give for `CN(c1ccccc1)S(=O)(=O)c1cccc(NC(=O)Cn2cnc3c2c(=O)n(C)c(=O)n3C)c1` here?
Its Potency is inconclusive: 18.4 µM [cytotoxic, partial curve].

For `O=C(O)COc1ccc(/C=C/C(=O)c2ccc3ccccc3c2)cc1`, which Potency is on record?
Its Potency is inconclusive: 20.6 µM [cytotoxic, single point].

For `CC(=O)Nc1ccc(N2CCN(c3ccc(C(F)(F)F)cn3)CC2)nc1`, which Potency is on record?
Its Potency is inconclusive: 2.06 µM [cytotoxic, partial curve, poor fit].

Which Potency does the source give for `COC(=O)c1sccc1NC(=O)CSc1ccccc1NS(=O)(=O)c1cc(Cl)ccc1Cl` here?
Its Potency is inconclusive: 29.1 µM [cytotoxic, single point].

Which Potency does the source give for `COc1ccc(C[C@H](N)C(=O)N[C@H]2[C@@H](O)[C@H](n3cnc4c(N(C)C)ncnc43)O[C@@H]2CO)cc1` here?
Its Potency is active: 0.411 µM.

With `COc1ccc(-c2nc3c(=O)n(C)c(=O)nc-3n(C)n2)cc1` as the compound, how does the Potency read?
The Potency was active: 0.651 µM.

With `Cc1c(CN(C)C)c2c(n1Cc1ccccc1)C(=O)c1ccccc1-2` as the compound, how does the Potency read?
The Potency was inconclusive: 29.1 µM [cytotoxic, single point].

For `CCCN1C(=O)S/C(=C/c2ccc(N3CCOCC3)o2)C1=O`, which “activity change, negative = cytotoxic” value is on record?
Its value is inactive: -26.2%.

With `COC(=O)c1ccccc1NC1CC(=O)N(c2c(C)cccc2C)C1=O` (stereo not drawn) as the compound, how does the “activity change, negative = cytotoxic” value read?
The value was inactive: 12%.

Which Potency does the source give for `CC(C)(C)NC(=O)c1cccc(NC(=O)CSc2ccc(Cl)cc2)c1` here?
The Potency was inconclusive: 29.1 µM [cytotoxic, single point].

Which “activity change, negative = cytotoxic” value does the source give for `Cc1cc(/C=C(\C#N)C(=O)OCC(=O)N(C)c2c(N)n(Cc3ccccc3)c(=O)[nH]c2=O)c(C)n1CC(C)C` here?
The value was inactive: -3.93%.

For `CC(C)Cc1cc(C(=O)Nc2cc(Br)ccc2O)no1`, which Potency is on record?
Its Potency is inconclusive: 23.1 µM [cytotoxic, single point].

Which Potency does the source give for `CN(C)CCn1c(=N)n(CC(O)c2ccc(Cl)c(Cl)c2)c2ccccc21` (stereo not drawn) here?
Its Potency is inconclusive: 23.1 µM [cytotoxic, single point].

With `CCSc1nnc(NC(=O)C2CCN(S(=O)(=O)c3ccccc3C(F)(F)F)CC2)s1` as the compound, how does the Potency read?
Its Potency is inconclusive: 32.6 µM [cytotoxic, partial curve, poor fit].

Which Potency does the source give for `CCOC(=O)c1nnn2c1nc(Nc1cccc(C(F)(F)F)c1)c1ccccc12` here?
The Potency was inconclusive: 16.4 µM [cytotoxic, single point].

With `CCOc1ccc2c(c1)sc(N)[n+]2Cc1cc(C)cc2cccnc12` as the compound, how does the Potency read?
Its Potency is active: 2.59 µM.

With `O=C(CCn1nnc2ccccc2c1=O)NCC1CCC(C(=O)O)CC1` (stereo not drawn) as the compound, how does the Potency read?
Its Potency is inconclusive: 0.0326 µM [cytotoxic, full curve].

With `COc1cc2[nH]c(=S)n(C3CC3)c(=O)c2cc1OC` as the compound, how does the Potency read?
Its Potency is inconclusive: 29.1 µM [rising, single point].
